{"source": "patent US8329643B2", "about": "“PIMAP39 modulates LPS-induced inflammatory response” (Trustees of Boston University, priority 2008, dated 2012)", "key": {"[1]": {"system": "LPS-induced TNF-α secretion", "experiment": "Time course of PIMAP39 effect on LPS-induced TNF-α secretion in THP-1 cells (ELISA)", "format": "cell-based, human", "settings": "500 ng/ml peptide, 2, 5 and 8 hrs, compared to SCpep control"}, "[2]": {"system": "p38α/LITAF signaling pathway", "experiment": "Western blot of p38α/LITAF signaling pathway in LPS-stimulated THP-1 cells treated with PIMAP39", "format": "cell-based, human", "settings": "500 ng/ml peptide, compared to controls"}, "[3]": {"system": "TNF-α", "experiment": "Plasma TNF-α by ELISA in the endotoxic shock assay", "format": "in vivo, mouse", "settings": "pooled plasma, within 6 hrs post LPS, LPS+PIMAP39", "protocol": "(A) Weight-matched wild-type mice (n=15) were injected intraperitoneal (i.p.) with a lethal dose of LPS (1 mg D-Gal+12.5 ng LPS per gram body weight) followed immediately by tail vein injection of DMSO (black line), 40 µg/g SCpep as control (green line) or […] PIMAP39 (red line). The treated mice were monitored for their behavior and mortality every hour. The survival time of each treated mouse was graphed. […] (B) Blood was collected every 2 hours post injection for a total duration of 6 hours. Mice were warmed under heating lamps to promote blood flow and a small incision was made on the tail. About 10-50 μl of blood was collected per animal at each time point (2, 4 or 6 hours). […] Pooled plasma samples from the mice within each group were measured in triplets by ELISA (Abraxis) to see the effects of PIMAP39 on TNF-α production. ELISA immunoreactivity was quantitated using a microplate reader (Bio-Rad) and the results from the 6 hr mark were graphed (only the data for LPS+DMSO and LPS+PIMAP39 are presented here due to the similarity between LPS+DMSO and LPS+SCepetide). […]\nTo investigate how PIMAP39 mediates endotoxic shock, 3 month old, weight matched mice were treated with a lethal dose of LPS (12.5 ng LPS+1 mg D-Gal per gram body weight) followed immediately by a tail vein injection of PIMAP39 or controls. The treated mice were monitored for their behavior and mortality every hour. […]"}}, "note": "At least one peptide structure holds a part that was inferred or is arguable (an end, a ring closure or a residue). No end group written: not given here."}
{"sequence": "KYGATTVVRVCEVTYDKTPLEKDGITVV [PIMAP39]", "values": [{"measurement": "TNF-α secreted by LPS-stimulated THP-1 cells", "setting": "[1]", "value": "significantly less"}, {"measurement": "level of LITAF gene expression", "setting": "[2]", "value": "markedly lower level"}, {"measurement": "level of phosphorylated p38α", "setting": "[2]", "value": "markedly lower level"}, {"measurement": "lower concentration of TNF-α compared to control mice", "setting": "[3]", "value": 78.3, "unit": "%"}]}
